Measurements taken from the supplement of paper PMC3334620.
Whole data set: some 33,000 sequences, median “E-score (-0.5 to 0.5)” near -0.0059, cut for the highest 2% near 0.26. The list shows a part of the results.

biological target: T1, Cin5 (UniProt P40917); assay: PBM E-score (8-mer binding enrichment) (E-score (-0.5 to 0.5)); higher = stronger / more preferred TF binding; settings: protein concentration: 100 nM; construct: GST-full length
T1 sequence: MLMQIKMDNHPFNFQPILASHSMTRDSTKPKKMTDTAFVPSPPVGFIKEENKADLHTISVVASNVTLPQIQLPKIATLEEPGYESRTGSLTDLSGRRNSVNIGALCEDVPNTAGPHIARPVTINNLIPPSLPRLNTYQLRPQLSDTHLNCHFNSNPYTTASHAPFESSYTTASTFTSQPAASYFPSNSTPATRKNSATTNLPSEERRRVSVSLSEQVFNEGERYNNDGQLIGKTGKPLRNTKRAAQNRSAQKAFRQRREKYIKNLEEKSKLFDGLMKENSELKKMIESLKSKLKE
Outline: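 E-scores (a modified Wilcoxon-Mann-Whitney statistic) were assigned by the Universal PBM Analysis Suite to every ungapped eight-base word pooled with its reverse complement. The input came from universal all-10-mer Agilent arrays made double-stranded by primer extension and probed with GST-tagged yeast transcription factors at about 100-200 nM. Fluorescent anti-GST detected bound protein, and masliner normalised the scans.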

In order of falling “PBM E-score” value:
1. ATAAGCAA  0.349
2. ATTATCTC  0.306
3. AGCTTATG  0.296
4. ATTGTTAC  0.276
5. GTAATTTA  0.27
6. AAAGTGAA  0.258
7. ACATTTTA  0.251
8. AGCCCAAA  0.215
9. AAACTCAA  0.201
10. GAGTATAA  0.181
11. CTCATTAA  0.175
12. ACCTGAAT  0.163
13. TGAGTACA  0.149
14. ATGTTTCC  0.143
15. GGCGCAAA  0.142
16. ACTCCACA  0.126
17. AACGGTTG  0.119
18. ATGAAGAA  0.115
19. ATCAAGCA  0.114
20. ACAAGTTA  0.102
21. GAATTCTC  0.0994
22. AGCTCGCG  0.0892
23. AGTTGTGC  0.0863
24. CTACTCAC  0.0863
25. GCGTTCGA  0.0843
26. TATGACGA  0.0753
27. ATCGAACA  0.0675
28. AAAAGACG  0.0596
29. TAAGGAAA  0.0547
30. AATTCCCA  0.0496
31. CCGATTCC  0.0486
32. CCAGTATA  0.048
33. TGATGAAA  0.0478
34. ACGAATTA  0.0396
35. CGAAGAAC  0.0305
36. AACCCGAC  0.0291
37. TGAGACAA  0.0273
38. GAAAGCCC  0.0262
39. CAATCTCC  0.0225
40. TCCCTAAA  0.0224
41. CCATTGCG  0.0221
42. ACAGCAGT  0.0218
43. GAACCATA  0.0184
44. TCATTGGA  0.0163
45. CGTTTTAA  0.00349
46. CGGTTCGA  0.003
47. CGGATGGC  -0.00132
48. AGACGGAA  -0.00624
49. CCCGCCAA  -0.0185
50. GCAGGAAA  -0.027
51. GCGCGGAC  -0.0321
52. GTGCGAGA  -0.0361
53. AACGTGGT  -0.0487
54. CCATCGGG  -0.049
55. ACGTCTGC  -0.0531
56. CCTTGAAA  -0.0534
57. CTAGATTC  -0.0567
58. CCCTATGA  -0.066
59. GATCCACC  -0.0681
60. CCTTAAAA  -0.0716
61. ATCCATAG  -0.0732
62. ATACTGGC  -0.0781
63. CAGTAGAG  -0.0798
64. GAGTCGGA  -0.08
65. CTGGCAAG  -0.0803
66. AGAGCCCA  -0.081
67. CCTGGTGA  -0.0922
68. CGAAGCGA  -0.0929
69. CGGGCGGC  -0.1
70. AAGGCACT  -0.104
71. ATTCGGGC  -0.108
72. AGTCTATG  -0.109
73. GGTGCAAC  -0.113
74. ACCAAAGG  -0.114
75. ACGCCGAG  -0.117
76. AGGTGCAG  -0.118
77. GGCTGGTA  -0.123
78. CTAACTCA  -0.123
79. CGTGGGTC  -0.133
80. AAGTGACT  -0.137
81. GCTCATAC  -0.138
82. AGTCTCTA  -0.142
83. GTTAGAGA  -0.143
84. AGGACGCG  -0.156
85. CCCAATGC  -0.162
86. CGGTCGAG  -0.171
87. CTGCGGTC  -0.176
88. ATGCGGTG  -0.224
89. AGAGGGAC  -0.234
90. CTCTCTCC  -0.245
91. CACGACCG  -0.263
92. AGAGCCGG  -0.295
93. CCCTGGTC  -0.309
94. GCCAGAGC  -0.331
